This note sets out measurements from publication PMC5693111, “Small molecule Photoregulin3 prevents retinal degeneration in the Rho^P23H mouse model of retinitis pigmentosa” (eLife, 2017).

By UniProt entry, the sequences of proteins in these tests, tags left out.
UniProt Q9Y5X4: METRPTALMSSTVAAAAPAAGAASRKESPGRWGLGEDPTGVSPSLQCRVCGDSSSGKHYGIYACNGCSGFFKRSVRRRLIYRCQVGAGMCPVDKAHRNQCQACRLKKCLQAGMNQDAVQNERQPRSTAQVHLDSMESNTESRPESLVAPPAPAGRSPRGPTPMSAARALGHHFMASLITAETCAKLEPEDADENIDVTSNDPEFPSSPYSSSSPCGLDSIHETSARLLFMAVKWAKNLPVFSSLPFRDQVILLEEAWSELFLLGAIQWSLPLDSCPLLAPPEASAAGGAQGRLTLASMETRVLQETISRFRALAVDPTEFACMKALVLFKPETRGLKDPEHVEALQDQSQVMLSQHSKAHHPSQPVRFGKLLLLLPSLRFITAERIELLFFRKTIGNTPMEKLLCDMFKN
UniProt P54845: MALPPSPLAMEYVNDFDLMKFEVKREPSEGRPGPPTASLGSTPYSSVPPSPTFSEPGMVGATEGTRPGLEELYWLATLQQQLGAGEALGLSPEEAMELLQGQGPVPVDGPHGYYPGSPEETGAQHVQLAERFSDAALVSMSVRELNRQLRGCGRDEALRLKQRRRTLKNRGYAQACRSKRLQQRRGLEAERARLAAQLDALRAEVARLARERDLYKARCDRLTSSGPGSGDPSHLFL

Results are given in words; binding and its absence hold for the method and conditions named. In cells and extracts the contact can be indirect. Some results given as binding are weak or reduced against the parent protein; the word gives no strength.

For this assay, the target named is NR2E3 (Homo sapiens, UniProt Q9Y5X4). Put plainly: co-IP; HEK293 cells co-transfected with NR2E3 and NRL, treated with DMSO or 1 uM PR3 for 2 days; lysates (25 mM Tris-HCl pH 7.5, 150 mM NaCl, 1 mM EDTA, 1% Triton X-100, 5% glycerol) immunoprecipitated with anti-Nr2e3 antibody on Dynabeads overnight at 4°C; Western blot with anti-Nrl.

Regarding NRL (from UniProt P54845 1-237), the binding result is recorded as “binds”.
